Experimental data reported in patent US11034717B2, “Farnesoid X receptor modulators” (Intercept Pharmaceuticals, Inc., priority 2015, dated 2021).

Test system: HepG2 cells
Test: In-vitro cytotoxicity, ATP content
Type: cell-based
Details: Homo sapiens, HepG2, Table 5B
Excerpt: To evaluate in-vitro cytotoxicity of a compound of the invention, two different assay methods are employed. The assays evaluate cell viability by measuring ATP levels and cytotoxicity by measuring LDH release. […] It has been called the “molecular unit of currency” when it comes to intracellular energy transfer.
An additional method to determine the viability of cells is to detect the integrity of the membrane that defines the cellular compartmentalization. Measuring the leakage of components out of the cytoplasm, in damaged cell membranes, indicates loss of membrane integrity, and LDH release is the method used to determine common toxicity in cells. HepG2 cells are treated with a compound of the invention, and serial dilutions are performed. LCA dilutions are added to the plated cells as assay controls together with no-cell and untreated cells. The assay is performed in triplicate for each test compound concentration.

Work on `CC/C(=C(\c1ccccc1)c1ccc(OCCN(C)C)cc1)c1ccccc1` [Tamoxifen, reference compound] yielded an EC50 of 20 ± 5 µM.
